Data as given in PubChem BioAssay AID1259308 (NCATS, 2017).

Assay: 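Knock-downs that increase output of a recombinant reporter protein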 (primary screen)
Cell system: human HEK293 embryonic kidney cells stably expressing firefly luciferase (HEK-CMV-Luc2-Hygro)
Reagent: single siRNA against human genes, 0.8 pmol siRNA per well
Time to read-out: 72 h
Measured: 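Luciferase light (ONE-Glo) measured on one replicate plate set and viability (CellTiter-Glo) on the other, scaled to a negative control siRNA, with robust z-scores and luciferase per cell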
Reading the numbers: total luciferase, z-score and total luciferase, % of control: higher = more reporter protein produced; luciferase per cell, z-score: higher = more reporter output per viable cell; viable cells, % of control: higher = more viable cells
Call rule: 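An siRNA counts as active if its total luciferase robust z-score exceeds 3; genes with two or more such siRNAs out of three were retested with fresh siRNAs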
Meaning of the calls: active = raised luciferase; inactive = no rise
Shown is a random part of about 59,000 reagents tested. Of all reagents, about 1,510 (2.6%) are marked active. 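Calls use total luciferase alone and ignore viability, so some active siRNAs may act by altering cell number.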 Entries without a mark were called inactive. The numbers tell different reagents against one gene apart. No sequences are given here.

target gene | reagent | total luciferase, z-score | total luciferase, % of control | luciferase per cell, z-score | viable cells, % of control
MYLK4 (myosin light chain kinase family member 4) | 1 | 0.32 | 88.2 | 1.08 | 74.1
MYLK4 (myosin light chain kinase family member 4) | 2 | -0.815 | 65.7 | -0.617 | 86.3
MYLK4 (myosin light chain kinase family member 4) | 3 | 0.105 | 84 | 0.0638 | 92.3
KCNH1 (potassium voltage-gated channel subfamily H member 1) | 1 | 0.0305 | 82.5 | 0.572 | 79.3
KCNH1 (potassium voltage-gated channel subfamily H member 1) | 2 | -0.514 | 71.7 | -0.423 | 89.5
KCNH1 (potassium voltage-gated channel subfamily H member 1) | 3 | -0.749 | 67 | -1.28 | 105
XRCC5 (X-ray repair cross complementing 5) | 1 | -0.475 | 72.4 | -0.65 | 96.1
XRCC5 (X-ray repair cross complementing 5) | 2 | -0.622 | 69.5 | -0.0483 | 78.7
XRCC5 (X-ray repair cross complementing 5) | 3 | -1.03 | 61.4 | -0.548 | 79.3
ZNF146 (zinc finger protein 146) | 1 | -0.472 | 72.5 | -0.0382 | 81.8
ZNF146 (zinc finger protein 146) | 2 | -0.856 | 64.9 | -0.586 | 84.6
ZNF146 (zinc finger protein 146) | 3 | 0.444 | 90.7 | 1.77 | 63.6
CCNI2 (cyclin I family member 2) | 1 | -0.0675 | 80.5 | 0.34 | 82.3
CCNI2 (cyclin I family member 2) | 2 | 0.986 | 101 | 1.2 | 82.8
CCNI2 (cyclin I family member 2) | 3 | 2.04 | 123 | 1.72 | 87.2
NPS (neuropeptide S) | 1 | -0.388 | 74.2 | 0.107 | 80.6
NPS (neuropeptide S) | 2 | -0.121 | 79.5 | -0.399 | 98.6
NPS (neuropeptide S) | 3 | -0.822 | 65.5 | -0.99 | 95
OR4D5 (olfactory receptor family 4 subfamily D member 5) | 1 | -0.195 | 78 | -0.271 | 93.6
OR4D5 (olfactory receptor family 4 subfamily D member 5) | 2 | -0.559 | 70.8 | -0.758 | 96.6
OR4D5 (olfactory receptor family 4 subfamily D member 5) | 3 | 0.298 | 87.8 | 0.448 | 87.2
GATA6 (GATA binding protein 6) | 1 | 0.47 | 91.2 | 0.626 | 86.5
GATA6 (GATA binding protein 6) | 2 | -0.861 | 64.8 | -0.183 | 75.9
GATA6 (GATA binding protein 6) | 3 | 4.45 (active) | 170 | 3.24 | 81.1
SERINC5 (serine incorporator 5) | 1 | -0.609 | 69.8 | -0.696 | 93.7
SERINC5 (serine incorporator 5) | 2 | 0.478 | 91.4 | 0.727 | 84.3
SERINC5 (serine incorporator 5) | 3 | 1.16 | 105 | 2.04 | 68.6
MIR7-3HG (MIR7-3 host gene) | 1 | -0.276 | 76.4 | 1.17 | 62.8
MIR7-3HG (MIR7-3 host gene) | 2 | -0.413 | 73.7 | -0.201 | 86.8
MIR7-3HG (MIR7-3 host gene) | 3 | 0.238 | 86.6 | 0.0109 | 96.5
DEAF1 (DEAF1 transcription factor) | 1 | -0.795 | 66.1 | -0.889 | 93.3
DEAF1 (DEAF1 transcription factor) | 2 | 1.09 | 104 | 0.634 | 98
DEAF1 (DEAF1 transcription factor) | 3 | -0.166 | 78.6 | -0.958 | 113
RAD18 (RAD18 E3 ubiquitin protein ligase) | 1 | 1.21 | 106 | 1.53 | 79.2
RAD18 (RAD18 E3 ubiquitin protein ligase) | 2 | 0.927 | 100 | 0.43 | 100
RAD18 (RAD18 E3 ubiquitin protein ligase) | 3 | -0.793 | 66.1 | -1.05 | 97.5
MLNR (motilin receptor) | 1 | 0.119 | 84.2 | -0.125 | 97.3
MLNR (motilin receptor) | 2 | -0.485 | 72.2 | -0.714 | 97.4
MLNR (motilin receptor) | 3 | -1.27 | 56.6 | -1.22 | 87.3

As entered above:
For “luciferase per cell, z-score”, GATA6 (GATA binding protein 6) #2 has -0.183
For “viable cells, % of control”, SERINC5 (serine incorporator 5) #1 shows 93.7
